Earlier results as cited in patent publication US20210121408A1, “Methods of Administering Cannabinoid to People Diagnosed With HIV” (priority 2019, published 2021).

C=C(C)[C@@H]1CCC(C)=C[C@H]1c1c(O)cc(CCCCC)cc1O [CBD, cannabidiol]
solubility in ethanol, acetone, chloroform and light petroleum (ethanol, acetone, chloroform and light petroleum): soluble | solubility in water (water): insoluble
